Data as given in PubChem BioAssay AID504774 (Drosophila RNAi Screening Center, 2011)

Test: 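Genes required for cells to withstand methyl methanesulphonate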 (primary screen)
System: Drosophila Kc167 cells
Reagents: long dsRNA against Drosophila genes, about 0.25 µg dsRNA per well
Duration: about 6 days: 3 days knock-down, then 3 days with or without MMS
Conditions: methyl methanesulphonate 0.004% (w/v) for 3 days after knock-down
Detection: 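Viability in wells given MMS, read as ATP luminescence, normalised by quantiles plate by plate and averaged across replicates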
Scale: mean viability with MMS and viability with MMS: higher = more surviving cells after MMS
In all, the deposit lists about 23,000 reagents; shown is an unselected part of those with a known target gene and a result. 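Values are quantile-normalised luminescence on an arbitrary scale; higher means more cells surviving MMS.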 Reagents against one gene are numbered here. A plus sign joins genes that one reagent is predicted to hit. Further read-outs or replicates are left out here. Reagent sequences are not shown.

{"target": "Sol1", "reagent no.": 1, "mean viability with MMS": 3.64e6, "viability with MMS, replicate 1": 4.07e6}
{"target": "Sol1", "reagent no.": 2, "mean viability with MMS": 3.70e6, "viability with MMS, replicate 1": 4.09e6}
{"target": "Sol1", "reagent no.": 3, "mean viability with MMS": 3.61e6, "viability with MMS, replicate 1": 4.09e6}
{"target": "BomS4", "reagent no.": 1, "mean viability with MMS": 3.53e6, "viability with MMS, replicate 1": 3.97e6}
{"target": "stan", "reagent no.": 1, "mean viability with MMS": 3.30e6, "viability with MMS, replicate 1": 3.79e6}
{"target": "stan", "reagent no.": 2, "mean viability with MMS": 3.53e6, "viability with MMS, replicate 1": 3.96e6}
{"target": "CG15614", "reagent no.": 1, "mean viability with MMS": 3.61e6, "viability with MMS, replicate 1": 4.06e6}
{"target": "Arl5", "reagent no.": 1, "mean viability with MMS": 3.61e6, "viability with MMS, replicate 1": 4.01e6}
{"target": "CG15375", "reagent no.": 1, "mean viability with MMS": 3.72e6, "viability with MMS, replicate 1": 4.04e6}
{"target": "CG33493", "reagent no.": 1, "mean viability with MMS": 3.67e6, "viability with MMS, replicate 1": 4.13e6}
{"target": "CG34277 + CG31542", "reagent no.": 1, "mean viability with MMS": 3.40e6, "viability with MMS, replicate 1": 3.94e6}
{"target": "CG31777", "reagent no.": 1, "mean viability with MMS": 3.65e6, "viability with MMS, replicate 1": 4.09e6}
{"target": "CG4984 + CG4975", "reagent no.": 1, "mean viability with MMS": 3.55e6, "viability with MMS, replicate 1": 4.04e6}
{"target": "CG4984 + CG4975", "reagent no.": 2, "mean viability with MMS": 3.77e6, "viability with MMS, replicate 1": 4.31e6}
{"target": "raskol", "reagent no.": 1, "mean viability with MMS": 3.50e6, "viability with MMS, replicate 1": 4.00e6}
{"target": "raskol", "reagent no.": 2, "mean viability with MMS": 3.66e6, "viability with MMS, replicate 1": 4.04e6}
{"target": "raskol", "reagent no.": 3, "mean viability with MMS": 3.60e6, "viability with MMS, replicate 1": 4.05e6}
{"target": "raskol", "reagent no.": 4, "mean viability with MMS": 2.67e6, "viability with MMS, replicate 1": 3.40e6}
{"target": "raskol", "reagent no.": 5, "mean viability with MMS": 3.48e6, "viability with MMS, replicate 1": 3.92e6}
{"target": "chinmo", "reagent no.": 1, "mean viability with MMS": 3.92e6, "viability with MMS, replicate 1": 4.21e6}
{"target": "chinmo", "reagent no.": 2, "mean viability with MMS": 3.37e6, "viability with MMS, replicate 1": 3.93e6}
{"target": "chinmo", "reagent no.": 3, "mean viability with MMS": 3.21e6, "viability with MMS, replicate 1": 3.58e6}
{"target": "chinmo", "reagent no.": 4, "mean viability with MMS": 3.26e6, "viability with MMS, replicate 1": 3.82e6}
{"target": "mip130", "reagent no.": 1, "mean viability with MMS": 3.50e6, "viability with MMS, replicate 1": 3.99e6}

3 entries already listed, sorted by “viability with MMS, replicate 1”, lowest first:
{"target": "CG34277 + CG31542", "reagent no.": 1, "mean viability with MMS": 3.40e6, "viability with MMS, replicate 1": 3.94e6}
{"target": "CG4984 + CG4975", "reagent no.": 1, "mean viability with MMS": 3.55e6, "viability with MMS, replicate 1": 4.04e6}
{"target": "CG31777", "reagent no.": 1, "mean viability with MMS": 3.65e6, "viability with MMS, replicate 1": 4.09e6}
